# Data reported in article PMC12803513.
# No constants are given. Whether binding was seen depends on the method and setting. Binding seen in cells or lysates may run through a third protein.
# Target: human Tau (Tubulin-associated unit) (human)
# Test: co-IP; conditions, lysate and precipitated protein not told; no data shown
binder,measurement,value
"Prefoldin 5 (protein, UniProt Q9VCZ8 1-168) MAATPSAPAKSEMIDLTKLSPEQLIQIKQEFEQEITNVQDSLSTLHGCQAKYAGSKEALGTFQPNWENRQILVPLTSSMYVPGRVKDLNRFVIDIGTGYYIEKDLEGSKDYFKRRVEYVQEQIEKIEKIHLQKTRFYNSVMSVLEMKQAAAAKLQSQQQSQPAVTQSS",binding,no binding
